Consider one molecule from ChEMBL document CHEMBL1146004, “Effect of substitution on novel tricyclic HIV-1 integrase inhibitors” (Bioorg Med Chem Lett, 2006).

Converted amounts (≈) assume the structure as drawn.

As a reminder, the solubility is how much of the substance goes into solution per volume. Higher therefore signals much dissolved substance.

This series in a line: physchem. The settings on record: buffer, pH 2.2.

The molecule `COc1c2c(c(O)c3ncccc13)C(=O)N(Cc1ccc(F)cc1)C2` came in with a solubility of 285 µM (≈ 96.4 µg/mL).
